No constants are given. Whether binding was seen depends on the method and setting. Binding seen in cells or lysates may run through a third protein. Binding calls can cover weak binding; strength is not graded here.
Tests used:
Assay in all cases: co-IP
[1] = target: TMC1 with CR2 deleted (mouse) (UniProt Q8R4P5)
[2] = target: TMC1 with CR3 deleted (mouse) (UniProt Q8R4P5)
[3] = target: TMC1 with CR1 deleted (mouse) (UniProt Q8R4P5)

The chains behind the UniProt entries cited, without tags or fusion partners. Where a name states a change or a piece, a line headed by the entry shows the natural chain unless it says otherwise.
UniProt Q8R4P5: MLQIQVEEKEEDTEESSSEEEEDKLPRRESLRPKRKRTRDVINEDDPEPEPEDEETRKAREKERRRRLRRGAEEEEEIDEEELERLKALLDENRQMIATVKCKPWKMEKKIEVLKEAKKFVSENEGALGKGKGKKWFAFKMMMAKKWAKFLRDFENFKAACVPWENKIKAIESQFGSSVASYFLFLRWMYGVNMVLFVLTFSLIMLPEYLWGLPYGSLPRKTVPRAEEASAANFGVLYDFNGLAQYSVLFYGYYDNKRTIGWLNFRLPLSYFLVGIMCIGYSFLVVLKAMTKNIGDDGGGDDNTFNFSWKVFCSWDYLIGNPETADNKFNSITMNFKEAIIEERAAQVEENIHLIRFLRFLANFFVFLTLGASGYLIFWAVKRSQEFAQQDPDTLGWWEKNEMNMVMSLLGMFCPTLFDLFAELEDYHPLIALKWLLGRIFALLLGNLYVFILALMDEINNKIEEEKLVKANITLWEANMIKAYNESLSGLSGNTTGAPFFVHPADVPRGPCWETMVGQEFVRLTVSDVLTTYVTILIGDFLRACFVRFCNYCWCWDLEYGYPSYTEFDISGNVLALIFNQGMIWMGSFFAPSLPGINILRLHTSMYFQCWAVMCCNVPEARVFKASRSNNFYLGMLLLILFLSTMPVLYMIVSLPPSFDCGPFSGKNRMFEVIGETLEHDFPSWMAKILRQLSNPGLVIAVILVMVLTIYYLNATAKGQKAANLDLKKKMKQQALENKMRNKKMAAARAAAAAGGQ

Measured: binding

B1: CIB2 expressed in HEK 293 cells (protein, UniProt Q9Z309 1-187)
chain: MGNKQTIFTEEQLDNYQDCTFFNKKDILKLHARFYELAPNLVPMDYRKSPIVHVPMSLIIQMPELRENPFKERIVEAFSEDGEGNLTFNDFVDMFSVLCESAPRELKANYAFKIYDFNTDNFICKEDLEMTLARLTKSELEEDEVVLVCDKVIEEADLDGDGKLGFADFEDMIAKAPDFLSTFHIRI
binds: [1] | [2] | [3]

Reference: publication doi:10.1101/2024.07.24.604958 (bioRxiv, 2024)
